From article PMC8608904
Residue numbers refer to the chain shown, from its start. These are yes or no findings as the source states them, for the method shown. Binding seen in cells or lysates may run through a third protein.

The chains behind the UniProt entries cited, without tags or fusion partners. Where a name states a change or a piece, a line headed by the entry shows the natural chain unless it says otherwise. Residues count along the entry.
UniProt Q8K0P3: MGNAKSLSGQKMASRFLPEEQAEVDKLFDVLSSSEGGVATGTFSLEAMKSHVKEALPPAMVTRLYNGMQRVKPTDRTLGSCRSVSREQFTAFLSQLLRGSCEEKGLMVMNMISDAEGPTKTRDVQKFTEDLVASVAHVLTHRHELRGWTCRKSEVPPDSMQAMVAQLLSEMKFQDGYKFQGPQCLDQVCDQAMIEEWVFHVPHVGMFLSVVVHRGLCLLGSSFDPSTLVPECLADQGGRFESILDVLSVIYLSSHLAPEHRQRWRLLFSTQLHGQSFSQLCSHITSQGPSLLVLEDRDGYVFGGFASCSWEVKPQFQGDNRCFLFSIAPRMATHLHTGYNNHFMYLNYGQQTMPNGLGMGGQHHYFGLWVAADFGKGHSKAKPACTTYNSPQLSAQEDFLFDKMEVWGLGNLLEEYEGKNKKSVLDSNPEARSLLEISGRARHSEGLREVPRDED
full-length recombinant Tldc1 (2–455): residues 2-455 of Q8K0P3
Tldc1 TLDc domain (235–455): residues 235-455 of Q8K0P3
UniProt Q91YH6: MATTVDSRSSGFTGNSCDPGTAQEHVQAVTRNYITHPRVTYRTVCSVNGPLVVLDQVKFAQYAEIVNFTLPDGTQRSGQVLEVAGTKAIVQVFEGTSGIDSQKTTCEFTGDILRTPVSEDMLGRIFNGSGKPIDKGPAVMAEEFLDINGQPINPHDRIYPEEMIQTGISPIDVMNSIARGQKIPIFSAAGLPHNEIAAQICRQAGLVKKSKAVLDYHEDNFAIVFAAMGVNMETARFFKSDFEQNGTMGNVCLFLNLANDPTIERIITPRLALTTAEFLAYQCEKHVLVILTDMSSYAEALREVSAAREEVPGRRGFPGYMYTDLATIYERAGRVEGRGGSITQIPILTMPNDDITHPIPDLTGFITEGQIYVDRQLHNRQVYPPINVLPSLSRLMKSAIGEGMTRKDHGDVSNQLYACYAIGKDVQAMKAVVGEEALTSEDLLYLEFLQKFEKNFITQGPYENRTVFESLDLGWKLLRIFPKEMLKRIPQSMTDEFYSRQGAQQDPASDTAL

How the values were obtained:
Assay in all cases: condition: approximately 14 pmol of GST-tagged protein on beads; pull-down; about 14 pmol purified GST-tagged bait on glutathione-Sepharose 4B beads, incubated with mouse kidney lysate (25 mM Tris-HCl pH 7.4, 150 mM NaCl, 5 mM EDTA, 1% Triton X-100); western blot with anti-B1; only the target purified
[1] = biological target: T1, G815A mutant of the TLDc domain of Ncoa7 (775–943) (mouse) (UniProt Q6DFV7)
T1 sequence: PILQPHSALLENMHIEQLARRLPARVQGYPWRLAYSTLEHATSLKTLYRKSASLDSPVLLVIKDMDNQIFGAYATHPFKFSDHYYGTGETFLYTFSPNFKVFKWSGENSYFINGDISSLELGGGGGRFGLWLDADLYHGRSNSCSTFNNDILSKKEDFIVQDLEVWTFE

[2] = biological target: T2, N-terminal Ncoa7 (2–353) (mouse) (UniProt Q6DFV7)
T2 sequence: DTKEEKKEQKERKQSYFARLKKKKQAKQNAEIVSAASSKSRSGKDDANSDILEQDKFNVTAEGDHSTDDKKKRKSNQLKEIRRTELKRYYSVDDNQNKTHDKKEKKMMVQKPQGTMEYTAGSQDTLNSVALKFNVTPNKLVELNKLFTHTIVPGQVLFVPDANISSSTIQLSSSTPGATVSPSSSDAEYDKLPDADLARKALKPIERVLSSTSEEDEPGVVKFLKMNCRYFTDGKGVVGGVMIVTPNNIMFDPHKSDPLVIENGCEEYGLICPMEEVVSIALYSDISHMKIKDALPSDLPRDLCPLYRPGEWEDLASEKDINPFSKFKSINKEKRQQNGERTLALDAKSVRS

Ncoa7 (593–774) (mouse) = biological target: T3, Ncoa7 (593–774) (mouse) (UniProt Q6DFV7)
T3 sequence: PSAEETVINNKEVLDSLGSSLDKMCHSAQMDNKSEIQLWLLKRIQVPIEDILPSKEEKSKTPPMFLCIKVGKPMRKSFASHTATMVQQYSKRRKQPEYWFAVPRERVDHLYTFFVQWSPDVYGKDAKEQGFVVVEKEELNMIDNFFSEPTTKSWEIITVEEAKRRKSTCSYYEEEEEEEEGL

[3] = biological target: T4, middle Ncoa7 (354–592) (mouse) (UniProt Q6DFV7)
T4 sequence: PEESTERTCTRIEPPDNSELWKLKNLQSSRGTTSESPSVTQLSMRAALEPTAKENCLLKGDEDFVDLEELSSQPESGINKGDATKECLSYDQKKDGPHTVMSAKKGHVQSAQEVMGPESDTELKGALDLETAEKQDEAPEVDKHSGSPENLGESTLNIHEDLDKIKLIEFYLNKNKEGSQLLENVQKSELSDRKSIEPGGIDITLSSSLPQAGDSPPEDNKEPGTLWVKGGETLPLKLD

[4] = biological target: T5, G896A mutant of the TLDc domain of Ncoa7 (775–943) (mouse) (UniProt Q6DFV7)
T5 sequence: T1 sequence with A41G, G122A

[5] = biological target: Tldc1 TLDc domain (235–455) (mouse) (UniProt Q8K0P3)
[6] = biological target: full-length recombinant Tldc1 (2–455) (mouse) (UniProt Q8K0P3)
[7] = biological target: T6, Tbc1d24 TLDc domain (336–561) (mouse) (UniProt Q3UUG6)
T6 sequence: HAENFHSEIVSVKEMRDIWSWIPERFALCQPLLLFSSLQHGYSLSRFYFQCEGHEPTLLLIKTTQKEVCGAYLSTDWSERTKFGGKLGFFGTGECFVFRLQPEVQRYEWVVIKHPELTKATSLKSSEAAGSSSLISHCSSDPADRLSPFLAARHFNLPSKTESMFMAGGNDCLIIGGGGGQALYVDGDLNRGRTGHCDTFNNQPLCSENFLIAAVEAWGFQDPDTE

binding [1]: no binding | binding [2]: no binding | binding (Ncoa7 (593–774) (mouse)): no binding | binding [3]: no binding | binding [4]: no binding | binding [5]: no binding | binding [6]: no binding | binding [7]: no binding
Substance: B1 subunit of V-ATPase (from UniProt Q91YH6 1-513)
